Source: PubChem BioAssay AID504444 (National Center for Advancing Translational Sciences (NCATS), 2011)
About 7,500 (2.1%) of roughly 360,000 compounds were called active. Inconclusive means that the source gave no clear call. Such entries were picked first, then a sample of the others. The call rests on the fitted dose curve; in most records, active means well fitted inhibition curve with a large enough effect; inconclusive means small, poorly fitted or top-dose-only effect, or effect the other way; inactive means flat fitted curve, though single readings scatter. A potency beside an inconclusive call is a rough fit, not a confirmed value.

Assay: Nrf2 qHTS screen for inhibitors; further: nearly all actives have a fitted effect of over 60% in size
Settings: A549 ARE-Fluc reporter, luciferase luminescence, 18-24 h; activity change, negative = inhibition: at 46 µM (top of the series)
Summary of the method: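 Reporter: ARE-Fluc in A549. Exposure: 18-24 h, 37 °C, 5% CO2, 5% FBS OPTI-MEM. Readouts: fluorescent cytotoxicity (CellTiter-Fluor), then luminescent Nrf2 signal after BugLite.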
On the % scale 0 is the no-effect control and ±100 the full control effect; potency means the concentration at half of the fitted maximal effect.

**Q.** Which “activity change, negative = inhibition” value does the source give for `Cn1cc(S(=O)(=O)N2CCOCC2)cc1C(=O)Nc1ccc(Cl)c(C(F)(F)F)c1` here?
**A.** Its value is inactive: -11.5%.

**Q.** With `O=C(NCCC1CC1(Cl)Cl)c1ccc([N+](=O)[O-])cc1` (centres undefined) as the molecule, how does the Potency read?
**A.** The Potency was inconclusive: 29.1 µM [activator, single point].

**Q.** Which Potency does the source give for `CN(C)c1ccc2c(c1[N+](=O)[O-])Cc1ccccc1-2` here?
**A.** The Potency was inconclusive: 20.6 µM [activator, partial curve].

**Q.** For `Cc1ccc(O)c(NC(=O)c2cc(-c3ccccc3O)no2)c1`, which Potency is on record?
**A.** The Potency was inconclusive: 16.4 µM [falling, single point].

**Q.** Which Potency does the source give for `O=c1ccc2ccccc2n1Cc1cccc(F)c1` here?
**A.** The Potency was inconclusive: 16.4 µM [activator, single point].

**Q.** With `CNC(=O)c1sccc1SCc1ccc(Cl)cc1Cl` as the molecule, how does the Potency read?
**A.** Its Potency is inconclusive: 23.1 µM [falling, partial curve].

**Q.** For `O=C(Nc1ccc(-c2ccc(N3CCCCC3)nn2)cc1)c1ccco1`, which Potency is on record?
**A.** The Potency was inconclusive: 9.2 µM [activator, partial curve].

**Q.** Which Potency does the source give for `CCOc1ccccc1NC(=O)Cc1noc2ccc(C)cc12` here?
**A.** Its Potency is inconclusive: 7.31 µM [falling, partial curve].

**Q.** For `Cc1cccc(NC(=O)CSc2ncnc3c2oc2ccccc23)c1`, which Potency is on record?
**A.** The Potency was inconclusive: 25.9 µM [falling, partial curve, poor fit].

**Q.** Which “activity change, negative = inhibition” value does the source give for `Cn1cnc2c(=O)oc3ccc(S(=O)(=O)Nc4ccc(F)cc4)cc3c21` here?
**A.** The value was inactive: 9.66%.

**Q.** For `C/C(=N\NC(=O)c1cccc(O)c1)c1cccc(NC(=O)c2ccc(F)cc2)c1`, which “activity change, negative = inhibition” value is on record?
**A.** Its value is inactive: -2.78%.

**Q.** Which Potency does the source give for `CC(=O)Nc1ccc(S(=O)(=O)N(C)CC(=O)Nc2cccc(S(=O)(=O)N3CCCC3)c2)cc1` here?
**A.** Its Potency is inconclusive: 32.6 µM [falling, single point].

**Q.** For `COc1cc2c(cc1OC)C1Cc3ccc(OC)c(OC)c3CN1CC2` (centres undefined), which Potency is on record?
**A.** The Potency was inconclusive: 11.6 µM [activator, partial curve].

**Q.** With `Cc1cc(Cl)ccc1NC(=S)NCCC(c1ccccc1)c1ccccc1` as the molecule, how does the Potency read?
**A.** The Potency was active: 15.8 µM.

**Q.** Which “activity change, negative = inhibition” value does the source give for `Cc1nnc(NC(=O)CSc2ccc(-c3ccco3)nn2)s1` here?
**A.** Its value is inactive: -24.8%.

**Q.** Which Potency does the source give for `CC(=O)N1CCC(N(Cc2ccc(C)o2)C(=O)Nc2ccc(C)cc2)CC1` here?
**A.** The Potency was inconclusive: 18.4 µM [activator, partial curve, poor fit].

**Q.** With `CCn1cc(/C=N\NC(=O)COc2cccc(C)c2C)c(C)n1` as the molecule, how does the Potency read?
**A.** Its Potency is inconclusive: 2.91 µM [activator, single point].

**Q.** With `COc1ccc(S(=O)(=O)N2CCOCC2)cc1NC(=O)c1cc2c(s1)CCCC2` as the molecule, how does the “activity change, negative = inhibition” value read?
**A.** The value was inactive: 0.181%.

**Q.** With `Cc1cccc(/C(N)=N/OC(=O)Cc2ccccc2)c1` as the molecule, how does the Potency read?
**A.** The Potency was inconclusive: 23.1 µM [activator, partial curve].

**Q.** For `O=c1sc(N2CCN(c3ccc(F)cc3)CC2)nc2ccsc12`, which Potency is on record?
**A.** The Potency was inconclusive: 4.11 µM [activator, full curve].

**Q.** For `CCOC(=O)CSc1nc2cc(C(=O)N3CCCC3)ccc2c(=O)n1Cc1ccccc1`, which Potency is on record?
**A.** Its Potency is inconclusive: 29.1 µM [falling, single point].

**Q.** With `CC(C)(C)c1ccc(C(=O)Nc2ccc(N3CCOCC3)cc2)cc1` as the molecule, how does the Potency read?
**A.** The Potency was inconclusive: 14.6 µM [falling, partial curve].

**Q.** Which “activity change, negative = inhibition” value does the source give for `CC(=O)N1CCN(C(=O)COC(=O)c2ccc(S(C)(=O)=O)cc2)CC1` here?
**A.** The value was inactive: -0.971%.

**Q.** Which “activity change, negative = inhibition” value does the source give for `COc1ccc(/C=N/Nc2nc3ccccc3[nH]2)cc1OC` here?
**A.** The value was inactive: 23.3%.

**Q.** For `Cn1c(=O)[nH]c(=O)c2c1nc(NCCc1ccccc1)n2Cc1ccc(F)cc1`, which “activity change, negative = inhibition” value is on record?
**A.** The value was inactive: -17.7%.

**Q.** Which Potency does the source give for `COc1ccc(NC(=O)c2c(NC(=O)c3ccc(Br)cc3)sc3c2CCCC3)cc1` here?
**A.** The Potency was inconclusive: 9.2 µM [activator, partial curve, poor fit].

**Q.** Which Potency does the source give for `Cc1ccc(C(=O)Nc2ccccc2-c2ccccc2)cc1[N+](=O)[O-]` here?
**A.** Its Potency is inconclusive: 18.4 µM [falling, single point].

**Q.** Which “activity change, negative = inhibition” value does the source give for `CC(NC(=O)/C(=C/c1ccc(OC(F)F)cc1)c1ccccc1)c1ccccc1` (centres undefined) here?
**A.** The value was inactive: -23.3%.

**Q.** Which “activity change, negative = inhibition” value does the source give for `COc1ccc2[nH]c(=O)c(CN(Cc3nnnn3Cc3ccco3)C3CCCCC3)cc2c1` here?
**A.** Its value is inactive: 2.91%.

**Q.** Which Potency does the source give for `CCN(CC)CCCN(C(=O)c1cccs1)c1nc(-c2ccc(OC)cc2)cs1` here?
**A.** The Potency was inconclusive: 2.06 µM [activator, partial curve, poor fit].

**Q.** For `COc1cc(OC)c2cc(C(=O)N/N=C/c3cccc(OC)c3O)[nH]c2c1`, which “activity change, negative = inhibition” value is on record?
**A.** The value was inactive: -23.4%.

**Q.** For `CCC(C)Sc1cccc(-c2nc3cnccn3c2NC2CCCCC2)c1` (centres undefined), which Potency is on record?
**A.** Its Potency is inconclusive: 20.6 µM [falling, single point].

**Q.** For `CC(C)(C)NS(=O)(=O)c1ccc(N2C(=O)c3ccccc3C2=O)cc1`, which “activity change, negative = inhibition” value is on record?
**A.** Its value is inactive: 0.567%.

**Q.** With `O=C(O)COc1ccccc1/C=C1\SC(=O)N(Cc2ccc(F)cc2)C1=O` as the molecule, how does the Potency read?
**A.** The Potency was inconclusive: 7.31 µM [falling, partial curve, poor fit].

**Q.** With `CC(=O)c1ccc(S(=O)(=O)Nc2cccc(-c3cn4c(n3)SCC4)c2)cc1` as the molecule, how does the Potency read?
**A.** Its Potency is inconclusive: 20.6 µM [falling, partial curve, poor fit].

**Q.** With `COc1ccc(CCNC(=O)c2c(O)c3c([nH]c2=O)CCCC3)cc1OC` as the molecule, how does the Potency read?
**A.** The Potency was inconclusive: 29.1 µM [falling, single point].

**Q.** Which Potency does the source give for `O=C(C1CCN(S(=O)(=O)c2ccccc2F)CC1)N1CCc2ccccc21` here?
**A.** Its Potency is inconclusive: 23.1 µM [falling, single point].

**Q.** For `O=C(CC1C(=O)NCCN1Cc1ccc(-c2ccccc2)cc1)NCC1CC1` (centres undefined), which Potency is on record?
**A.** Its Potency is active: 23.1 µM.

**Q.** For `CCC(C)(C)C1CCC(NC(=O)N2CCN(c3ccccc3O)CC2)CC1` (centres undefined), which Potency is on record?
**A.** Its Potency is inconclusive: 9.2 µM [falling, partial curve, poor fit].

**Q.** Which Potency does the source give for `COc1ccc(N=C2O/C(=C/c3sc(=S)n(CC4CCCO4)c3O)N=C2C#N)cc1` (centres undefined) here?
**A.** Its Potency is inconclusive: 2.91 µM [activator, full curve].

**Q.** With `COc1ccc(N2CCN(CCCNC(=O)Cn3c(-c4cccs4)cc4ccccc43)CC2)cc1` as the molecule, how does the “activity change, negative = inhibition” value read?
**A.** The value was inactive: -5.38%.

**Q.** Which Potency does the source give for `O=C(COc1ccc(S(=O)(=O)NC2CCCCC2)cc1Cl)NCc1cccnc1` here?
**A.** The Potency was inconclusive: 18.4 µM [falling, partial curve, poor fit].

**Q.** Which Potency does the source give for `COc1cccc(C2C(C(=O)Nc3ccc(C)cc3C)=C(C)Nc3nc4ccccc4n32)c1OC` (centres undefined) here?
**A.** The Potency was inconclusive: 23.1 µM [falling, partial curve, poor fit].

**Q.** With `O=C(CSc1nc2ccccc2c(=O)n1-c1ccccc1)N1CCc2ccccc2C1` as the molecule, how does the Potency read?
**A.** The Potency was inconclusive: 25.9 µM [falling, partial curve, poor fit].
